Measurements taken from PubChem BioAssay AID230 (DTP/NCI, 2004).
The list is a part of this screen's results and no random one: it gathers some chemical classes. Other doses and runs of a compound may be missing. T/C: endpoint of the treated group in % of that of the vehicle group. For survival time, this PubChem deposit counts one and a half times the control or more as active, and values a quarter to a half above the control carry no call in these data; other NCI protocols may use other cut-offs. Some T/C values are marked as having no survivor count here; that says nothing about deaths at the dose. Schedule codes are those of the source, taken here to give the interval after Q, in days (D) or hours (H), and the number of doses after X. Some entries were tested several times; the values are given in rising order.

Tested on: C3H/He mice, Gardner lymphosarcoma 6C3HED ip, survival T/C
Test: NCI In Vivo Anticancer Drug Screen. Data for tumor model Lymphosarcoma Gardner 6C3HED (intraperitoneal) in C3H/He mice
Conditions: T/C endpoint: survival time, mean or median, schedule: Q01DX010 (ip), vehicle: saline, higher T/C = longer survival
Procedure: The antitumor activity of compounds was measured in mice bearing transplantable tumors. Survival or tumor size were measured and the results are expressed as the measurement made in the treated group (T) divided by the measurement made in the vehicle treated control group (C). The tumor model used in this assay is Lymphosarcoma Gardner 6C3HED (intraperitoneal) in C3H/He mice

NC1CCCCC1.NP(=O)(O)N(CCCl)CCCl
T/C (dose: 15.6 mg/kg/injection): 147 % of control [survivor count not shown] | T/C (dose: 31.3 mg/kg/injection): 271 % of control [survivor count not shown] | T/C (dose: 62.5 mg/kg/injection): 128 % of control [survivor count not shown]

ClCCN(CCCl)Cc1nc2ccccc2[nH]1
T/C (dose: 2.5 mg/kg/injection): 113 % of control [survivor count not shown] | T/C (dose: 5.0 mg/kg/injection): 166 % of control [survivor count not shown] | T/C (dose: 10.0 mg/kg/injection): 103 % of control [survivor count not shown]

NC(Cc1ccccc1N(CCCl)CCCl)C(=O)O (configuration not stated)
T/C (dose: 0.25 mg/kg/injection): 132 [survivor count not shown] and 157 % of control [survivor count not shown] | T/C (dose: 0.5 mg/kg/injection): 196 [survivor count not shown] and 300 % of control [survivor count not shown] | T/C (dose: 1.0 mg/kg/injection): 178 [survivor count not shown] and 207 % of control [survivor count not shown]

NC(Cc1cccc(N(CCCl)CCCl)c1)C(=O)O (configuration not stated)
T/C (dose: 0.63 mg/kg/injection): 123 [survivor count not shown] and 212 % of control [survivor count not shown] | T/C (dose: 1.25 mg/kg/injection): 138 [survivor count not shown] and 225 % of control [survivor count not shown] | T/C (dose: 2.5 mg/kg/injection): 87 [survivor count not shown] and 103 % of control [survivor count not shown]
